29 targets from the supplement of paper PMC10849652 can be followed below.

Chains of the proteins cited; added tags and fusions are not shown. Lines headed by an entry give the natural chain unless they say otherwise; changes in a name come on top.
UniProt Q9BRR6: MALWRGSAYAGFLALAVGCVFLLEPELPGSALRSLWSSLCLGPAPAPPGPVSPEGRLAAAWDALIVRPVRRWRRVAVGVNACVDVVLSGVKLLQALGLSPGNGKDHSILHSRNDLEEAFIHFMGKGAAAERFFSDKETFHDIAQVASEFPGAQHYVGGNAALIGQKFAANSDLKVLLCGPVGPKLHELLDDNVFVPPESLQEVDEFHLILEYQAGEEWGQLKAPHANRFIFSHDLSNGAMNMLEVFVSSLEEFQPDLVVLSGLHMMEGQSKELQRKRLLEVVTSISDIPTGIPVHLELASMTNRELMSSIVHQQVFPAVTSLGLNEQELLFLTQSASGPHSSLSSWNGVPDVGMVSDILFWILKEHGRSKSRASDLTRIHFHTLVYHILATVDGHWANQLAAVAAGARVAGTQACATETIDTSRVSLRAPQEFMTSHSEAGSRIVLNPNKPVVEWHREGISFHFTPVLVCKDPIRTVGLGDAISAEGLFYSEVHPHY
UniProt P42330: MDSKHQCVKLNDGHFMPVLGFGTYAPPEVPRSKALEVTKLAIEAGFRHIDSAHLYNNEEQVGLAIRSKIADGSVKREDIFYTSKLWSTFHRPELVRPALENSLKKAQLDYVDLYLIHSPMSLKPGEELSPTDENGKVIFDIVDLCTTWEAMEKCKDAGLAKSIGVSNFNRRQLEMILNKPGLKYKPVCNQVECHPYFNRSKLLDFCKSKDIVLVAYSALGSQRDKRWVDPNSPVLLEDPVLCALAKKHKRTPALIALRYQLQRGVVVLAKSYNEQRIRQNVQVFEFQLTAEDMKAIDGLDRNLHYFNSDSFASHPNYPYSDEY
UniProt Q9NX46: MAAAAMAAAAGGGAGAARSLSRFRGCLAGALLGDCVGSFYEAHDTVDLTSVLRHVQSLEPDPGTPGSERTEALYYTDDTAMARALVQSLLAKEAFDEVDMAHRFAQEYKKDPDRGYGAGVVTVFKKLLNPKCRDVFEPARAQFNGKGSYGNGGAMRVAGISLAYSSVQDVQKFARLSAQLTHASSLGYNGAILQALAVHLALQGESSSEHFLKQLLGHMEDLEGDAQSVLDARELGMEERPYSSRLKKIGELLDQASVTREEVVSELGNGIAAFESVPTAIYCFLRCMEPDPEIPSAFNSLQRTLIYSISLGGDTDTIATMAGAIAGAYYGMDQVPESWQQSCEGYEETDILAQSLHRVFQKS
UniProt P30566: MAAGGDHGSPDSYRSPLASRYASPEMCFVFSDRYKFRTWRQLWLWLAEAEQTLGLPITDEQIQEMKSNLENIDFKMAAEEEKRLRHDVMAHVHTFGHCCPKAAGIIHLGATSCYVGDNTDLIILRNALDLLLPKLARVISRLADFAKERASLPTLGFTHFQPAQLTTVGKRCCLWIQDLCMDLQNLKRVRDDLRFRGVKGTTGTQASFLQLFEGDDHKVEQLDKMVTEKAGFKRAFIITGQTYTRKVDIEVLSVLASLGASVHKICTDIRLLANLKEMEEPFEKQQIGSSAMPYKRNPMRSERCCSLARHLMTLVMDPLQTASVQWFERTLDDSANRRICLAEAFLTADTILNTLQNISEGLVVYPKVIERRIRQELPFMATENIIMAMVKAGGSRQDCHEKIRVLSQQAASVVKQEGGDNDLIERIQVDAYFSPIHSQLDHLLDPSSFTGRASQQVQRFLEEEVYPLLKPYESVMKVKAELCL
UniProt Q8WYP5: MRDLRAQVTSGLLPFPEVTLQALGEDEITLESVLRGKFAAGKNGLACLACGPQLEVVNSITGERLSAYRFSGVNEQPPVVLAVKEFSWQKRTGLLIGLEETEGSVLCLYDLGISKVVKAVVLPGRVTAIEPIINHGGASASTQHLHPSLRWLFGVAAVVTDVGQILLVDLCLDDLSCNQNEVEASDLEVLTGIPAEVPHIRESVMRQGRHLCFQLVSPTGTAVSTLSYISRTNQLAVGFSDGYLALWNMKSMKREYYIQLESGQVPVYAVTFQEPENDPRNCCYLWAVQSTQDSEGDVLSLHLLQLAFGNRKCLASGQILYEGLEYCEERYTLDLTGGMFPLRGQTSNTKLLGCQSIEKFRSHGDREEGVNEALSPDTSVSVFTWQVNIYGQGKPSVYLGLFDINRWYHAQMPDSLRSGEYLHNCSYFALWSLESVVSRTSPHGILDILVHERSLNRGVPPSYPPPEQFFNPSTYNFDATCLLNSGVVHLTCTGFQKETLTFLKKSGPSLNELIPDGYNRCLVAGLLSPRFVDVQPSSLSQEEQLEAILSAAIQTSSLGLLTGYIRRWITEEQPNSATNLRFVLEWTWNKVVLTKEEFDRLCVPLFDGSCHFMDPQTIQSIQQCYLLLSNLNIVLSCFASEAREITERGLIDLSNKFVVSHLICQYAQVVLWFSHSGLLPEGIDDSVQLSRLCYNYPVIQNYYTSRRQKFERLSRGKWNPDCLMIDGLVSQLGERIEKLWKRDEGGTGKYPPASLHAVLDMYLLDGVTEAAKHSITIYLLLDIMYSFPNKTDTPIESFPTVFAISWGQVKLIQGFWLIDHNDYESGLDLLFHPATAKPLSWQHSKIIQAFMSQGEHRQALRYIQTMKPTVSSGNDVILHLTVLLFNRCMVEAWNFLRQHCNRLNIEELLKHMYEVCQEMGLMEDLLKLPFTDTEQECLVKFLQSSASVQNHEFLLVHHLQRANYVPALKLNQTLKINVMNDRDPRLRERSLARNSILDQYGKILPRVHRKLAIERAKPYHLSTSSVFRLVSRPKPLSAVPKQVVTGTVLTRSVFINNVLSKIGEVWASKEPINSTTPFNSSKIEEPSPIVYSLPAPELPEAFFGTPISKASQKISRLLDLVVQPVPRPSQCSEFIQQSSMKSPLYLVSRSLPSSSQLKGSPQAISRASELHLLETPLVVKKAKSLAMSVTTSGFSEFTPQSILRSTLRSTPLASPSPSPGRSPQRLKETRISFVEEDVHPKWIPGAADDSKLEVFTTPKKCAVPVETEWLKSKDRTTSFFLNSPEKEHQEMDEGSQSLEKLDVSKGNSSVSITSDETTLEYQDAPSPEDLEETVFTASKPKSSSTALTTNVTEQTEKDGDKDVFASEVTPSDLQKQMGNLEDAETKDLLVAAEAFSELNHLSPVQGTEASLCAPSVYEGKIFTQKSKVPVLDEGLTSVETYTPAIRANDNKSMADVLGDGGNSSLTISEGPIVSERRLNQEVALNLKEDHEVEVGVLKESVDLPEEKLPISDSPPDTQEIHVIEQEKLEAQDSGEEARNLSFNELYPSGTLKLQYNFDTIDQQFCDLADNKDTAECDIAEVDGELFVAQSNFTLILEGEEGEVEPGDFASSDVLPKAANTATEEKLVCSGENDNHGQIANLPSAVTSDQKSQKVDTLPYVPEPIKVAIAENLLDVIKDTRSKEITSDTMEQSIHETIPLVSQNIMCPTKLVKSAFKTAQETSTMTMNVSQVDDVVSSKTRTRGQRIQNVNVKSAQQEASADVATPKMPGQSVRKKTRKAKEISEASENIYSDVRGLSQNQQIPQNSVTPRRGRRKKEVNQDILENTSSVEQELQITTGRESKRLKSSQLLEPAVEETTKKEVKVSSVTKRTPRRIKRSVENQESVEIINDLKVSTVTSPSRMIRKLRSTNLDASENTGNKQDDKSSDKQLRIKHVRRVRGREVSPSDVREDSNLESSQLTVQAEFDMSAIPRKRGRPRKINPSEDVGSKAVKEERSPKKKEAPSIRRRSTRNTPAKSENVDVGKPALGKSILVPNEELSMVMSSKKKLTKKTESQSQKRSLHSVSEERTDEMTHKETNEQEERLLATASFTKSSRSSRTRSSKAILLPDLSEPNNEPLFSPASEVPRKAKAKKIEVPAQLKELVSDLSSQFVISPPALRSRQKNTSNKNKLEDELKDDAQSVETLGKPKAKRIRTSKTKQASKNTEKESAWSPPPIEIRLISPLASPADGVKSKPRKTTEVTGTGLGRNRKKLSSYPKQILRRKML
UniProt O43488: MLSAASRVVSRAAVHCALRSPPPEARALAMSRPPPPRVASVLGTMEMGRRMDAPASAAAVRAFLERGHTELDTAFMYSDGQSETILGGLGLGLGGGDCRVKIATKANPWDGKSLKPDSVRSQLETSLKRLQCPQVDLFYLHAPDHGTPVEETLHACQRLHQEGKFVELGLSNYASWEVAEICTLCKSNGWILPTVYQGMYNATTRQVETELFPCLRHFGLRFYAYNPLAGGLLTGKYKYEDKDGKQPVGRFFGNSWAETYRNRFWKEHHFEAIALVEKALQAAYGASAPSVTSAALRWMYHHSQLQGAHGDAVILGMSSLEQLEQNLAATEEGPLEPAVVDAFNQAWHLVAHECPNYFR
UniProt Q9Y672: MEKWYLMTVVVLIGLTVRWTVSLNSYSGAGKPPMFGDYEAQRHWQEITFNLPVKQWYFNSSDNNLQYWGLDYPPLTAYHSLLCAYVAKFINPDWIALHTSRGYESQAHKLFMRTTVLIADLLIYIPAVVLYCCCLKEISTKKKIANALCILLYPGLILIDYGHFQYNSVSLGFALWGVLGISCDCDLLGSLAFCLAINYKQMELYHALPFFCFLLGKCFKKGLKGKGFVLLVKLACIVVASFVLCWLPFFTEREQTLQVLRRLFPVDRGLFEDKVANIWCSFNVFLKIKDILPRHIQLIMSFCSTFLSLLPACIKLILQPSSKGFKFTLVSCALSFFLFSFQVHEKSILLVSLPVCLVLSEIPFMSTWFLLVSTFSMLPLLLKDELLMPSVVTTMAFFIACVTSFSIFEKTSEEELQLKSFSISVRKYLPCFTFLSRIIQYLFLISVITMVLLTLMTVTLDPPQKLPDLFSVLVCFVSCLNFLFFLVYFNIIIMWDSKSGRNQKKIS
UniProt Q9Y4W6: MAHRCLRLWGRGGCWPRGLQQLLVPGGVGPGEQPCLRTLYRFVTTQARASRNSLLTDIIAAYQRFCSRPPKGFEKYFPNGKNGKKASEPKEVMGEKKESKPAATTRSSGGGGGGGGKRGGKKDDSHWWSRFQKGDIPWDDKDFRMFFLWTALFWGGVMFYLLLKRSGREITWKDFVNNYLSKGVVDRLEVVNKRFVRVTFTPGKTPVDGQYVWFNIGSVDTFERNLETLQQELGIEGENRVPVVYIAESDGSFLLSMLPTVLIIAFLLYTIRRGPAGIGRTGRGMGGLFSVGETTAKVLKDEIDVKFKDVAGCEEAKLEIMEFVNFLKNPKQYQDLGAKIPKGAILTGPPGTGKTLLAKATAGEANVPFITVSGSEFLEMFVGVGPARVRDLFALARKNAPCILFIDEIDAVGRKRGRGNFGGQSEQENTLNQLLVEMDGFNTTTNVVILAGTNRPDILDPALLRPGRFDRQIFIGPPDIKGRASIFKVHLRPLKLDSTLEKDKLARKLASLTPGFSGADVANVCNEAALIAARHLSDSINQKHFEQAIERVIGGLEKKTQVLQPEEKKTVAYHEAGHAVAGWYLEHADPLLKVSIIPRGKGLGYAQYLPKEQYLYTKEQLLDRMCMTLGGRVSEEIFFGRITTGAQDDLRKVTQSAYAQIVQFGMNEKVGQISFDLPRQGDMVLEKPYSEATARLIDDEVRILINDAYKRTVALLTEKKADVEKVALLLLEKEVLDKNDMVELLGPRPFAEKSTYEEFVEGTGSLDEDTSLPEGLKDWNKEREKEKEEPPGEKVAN
UniProt O95433, whole entry, looked up: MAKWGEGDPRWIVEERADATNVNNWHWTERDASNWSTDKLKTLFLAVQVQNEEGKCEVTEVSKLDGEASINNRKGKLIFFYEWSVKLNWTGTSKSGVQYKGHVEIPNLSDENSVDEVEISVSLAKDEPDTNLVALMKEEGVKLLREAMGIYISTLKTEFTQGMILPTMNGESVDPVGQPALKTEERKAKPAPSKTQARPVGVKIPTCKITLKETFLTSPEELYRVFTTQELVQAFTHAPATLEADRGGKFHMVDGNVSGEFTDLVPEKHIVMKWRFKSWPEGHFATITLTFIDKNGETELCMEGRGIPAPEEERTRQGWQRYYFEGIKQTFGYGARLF
UniProt P55263: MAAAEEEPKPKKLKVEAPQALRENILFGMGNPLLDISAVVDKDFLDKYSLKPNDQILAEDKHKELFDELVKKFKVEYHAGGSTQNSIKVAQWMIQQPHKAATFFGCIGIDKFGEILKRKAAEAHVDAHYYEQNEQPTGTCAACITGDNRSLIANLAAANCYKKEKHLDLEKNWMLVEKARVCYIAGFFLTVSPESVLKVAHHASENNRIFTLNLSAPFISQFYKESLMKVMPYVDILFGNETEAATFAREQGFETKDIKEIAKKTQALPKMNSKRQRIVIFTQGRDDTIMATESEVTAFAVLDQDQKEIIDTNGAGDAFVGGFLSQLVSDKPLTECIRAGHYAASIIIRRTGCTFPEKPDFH
UniProt Q9BV57: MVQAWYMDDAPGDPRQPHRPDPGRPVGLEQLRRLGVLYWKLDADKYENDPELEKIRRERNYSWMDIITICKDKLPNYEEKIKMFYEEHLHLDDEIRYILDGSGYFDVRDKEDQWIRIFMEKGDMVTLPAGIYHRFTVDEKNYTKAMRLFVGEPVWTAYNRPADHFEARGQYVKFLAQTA

Some of the results follow.

Compound in the first assay: Cc1sc2c(c1C)C(c1ccc(Cl)cc1)=N[C@@H](CC(=O)OC(C)(C)C)c1nnc(C)n1-2
The assay is described as follows: log2 fold change, soluble protein after heating vs DMSO (PISA); higher = thermal stabilisation; K562 cells, 10 uM, 30 min; active = over 0.2 and 3.5 SD of the protein, either way, in both replicates (recomputed). The method, boiled down: (§1)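 Aliquots of K562 cells (2×10^6 cells/mL) treated with 10 μM compound for 30 min were heated for 3 min over 48°C-58°C. After pooling and extraction in PBS with 0.5% NP-40 at 4°C, soluble protein from a 21,000xg, 90 min spin was quantified by TMTpro 16plex LC-MS/MS with channel sums equalised. Thermal stability is expressed against control samples, from duplicates, as a log2 fold change.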
For AGL (UniProt P35573), the log2 fold change was inactive: 0.067.
Turning to ALDH1L2 (UniProt Q3SY69), the log2 fold change was inactive: 0.02.
Still for that read-out and setting: to AFG1L (UniProt Q8WV93) belongs inactive: -0.074; to ADPGK (UniProt Q9BRR6), inactive: -0.008.
Take AMN1 (UniProt Q8IY45): the log2 fold change was inactive: -0.007.
Regarding AKR1C3 (UniProt P42330), the log2 fold change was inactive: -0.038.
The same measure, in the same setting: the figure for AGPS (UniProt O00116) is inactive: -0.031; for ADPRHL2 (UniProt Q9NX46) it is inactive: -0.057; for AK6 (UniProt Q9Y3D8) it is inactive: -0.014.
On the same count and under the same terms, to AIMP2 (UniProt Q13155) belongs inactive: 0.287.
Same read-out and setting: to ANAPC1 (UniProt Q9H1A4) belongs inactive: 0.025.
Take ADSL (UniProt P30566): the log2 fold change is inactive: -0.016.
Same read-out and setting: the figure for AIMP1 isoform 2 (UniProt Q12904) is inactive: 0.293; for ALAD isoform 2 (UniProt P13716) it is inactive: -0.005; for AHCTF1 isoform 2 (UniProt Q8WYP5) it is inactive: 0.009.
Still for that read-out and setting: to AKR7A2 (UniProt O43488) belongs inactive: -0.04; to AGPAT2 (UniProt O15120), inactive: -0.143.
The same measure, in the same setting: to ALG9 isoform 3 (UniProt Q9H6U8) belongs inactive: -0.023; to AFTPH isoform 9 (UniProt Q6ULP2), inactive: -0.066; to ALG6 (UniProt Q9Y672), inactive: -0.072.
On to AFG3L2 (UniProt Q9Y4W6), for which the log2 fold change was inactive: -0.022.
On the same count and under the same terms, to AK2 isoform 2 (UniProt P54819) belongs inactive: 0.003.
Turning to AHSA1 (UniProt O95433), the log2 fold change was inactive: -0.024.
On the same count and under the same terms, to ADO (UniProt Q96SZ5) belongs inactive: 0.
On to AGPAT3 isoform 3 (UniProt Q9NRZ7), for which the log2 fold change was inactive: -0.048.
Same read-out and setting: the figure for ADK (UniProt P55263) is inactive: -0.008; for AIFM2 (UniProt Q9BRQ8) it is inactive: 0.045; for AMDHD2 isoform 3 (UniProt Q9Y303) it is inactive: -0.034.
On the same count and under the same terms, to ADI1 (UniProt Q9BV57) belongs inactive: 0.001.

Compound in the next assay: c1ccc([C@@H]2C[C@H]2NC2CCNCC2)cc1
Described as above. A digest of the protocol:
as §1
AGL (UniProt P35573): the log2 fold change was inactive: 0.016.
ALDH1L2 (UniProt Q3SY69): the log2 fold change was inactive: -0.031.
As to AFG1L (UniProt Q8WV93), the log2 fold change was inactive: -0.129.
Turning to ADPGK (UniProt Q9BRR6), the log2 fold change is inactive: 0.003.
Still for that read-out and setting: the figure for AMN1 (UniProt Q8IY45) is inactive: -0.082; for AKR1C3 (UniProt P42330) it is inactive: -0.156; for AGPS (UniProt O00116) it is inactive: -0.051.
Still for that read-out and setting: the figure for ADPRHL2 (UniProt Q9NX46) is inactive: -0.087.
On the same count and under the same terms, to AK6 (UniProt Q9Y3D8) belongs inactive: -0.008; to AIMP2 (UniProt Q13155), inactive: -0.005; to ANAPC1 (UniProt Q9H1A4), inactive: -0.011.
For ADSL (UniProt P30566), the log2 fold change is inactive: 0.031.
On the same count and under the same terms, to AIMP1 isoform 2 (UniProt Q12904) belongs inactive: -0.008; to ALAD isoform 2 (UniProt P13716), inactive: 0.061; to AHCTF1 isoform 2 (UniProt Q8WYP5), inactive: 0.076.
The same measure, in the same setting: to AKR7A2 (UniProt O43488) belongs inactive: -0.095; to AGPAT2 (UniProt O15120), inactive: 0.044.
ALG9 isoform 3 (UniProt Q9H6U8): the log2 fold change was inactive: -0.028.
On the same count and under the same terms, the figure for AFTPH isoform 9 (UniProt Q6ULP2) is inactive: -0.022; for ALG6 (UniProt Q9Y672) it is inactive: 0.043; for AFG3L2 (UniProt Q9Y4W6) it is inactive: 0.012.
Regarding AK2 isoform 2 (UniProt P54819), the log2 fold change is inactive: 0.026.
Still for that read-out and setting: the figure for AHSA1 (UniProt O95433) is inactive: -0.003.
Still for that read-out and setting: to ADO (UniProt Q96SZ5) belongs inactive: 0.037; to AGPAT3 isoform 3 (UniProt Q9NRZ7), inactive: -0.024.
As to ADK (UniProt P55263), the log2 fold change was inactive: -0.057.
Same read-out and setting: to AIFM2 (UniProt Q9BRQ8) belongs inactive: 0.
As for AMDHD2 isoform 3 (UniProt Q9Y303), the log2 fold change is inactive: -0.015.
Regarding ADI1 (UniProt Q9BV57), the log2 fold change is inactive: 0.022.
